Reference: article PMC6581795, “Phosphorylation of FANCD2 Inhibits the FANCD2/FANCI Complex and Suppresses the Fanconi Anemia Pathway in the Absence of DNA Damage”

Test system: FANCD2 WT + FANCI
Experiment: EMSA
Conditions: CK2 phosphorylated, marked reduction vs mock; EMSA: 1 nM DNA, 25 mM Tris-HCl pH 7.5, 100 mM NaCl, 1 mM EDTA, 6% glycerol, 1 mM DTT, room temperature 1 h; 4% PAGE 0.4x TBE at 4 C; recombinant protein

“CATTGTGAATTCGCCTCTCTGTCTAGCCGAAGCTCGAAACGATCTTGTGC / GTCCATCAAAGTTCGACTGTGCGGCTAGACAGAGAGGCGAATTCACAATG [ICL14 Y-shaped DNA]”: binds more weakly.

For at least one entry, the source does not settle the construct or the ends of the probe. Weaker means in comparison with the reference protein, sequence or condition of that experiment.
